Laboratory results published in patent US20110038885A1 (priority 2007, published 2011).

Assay: general procedure: Fmoc solid-phase peptide synthesis; Rink Amide MBHA resin (0.58 mmol/g or 0.78 mmol/g); Wang resin for C-terminal acids; DIC/HOBt
Conditions: whole synthesis; for final HPLC purity / purity (crude or final not stated): analytical HPLC; for final HPLC purity / crude mass / isolated mass: scale 0.09 mmol; for purity (crude or final not stated): scale of the general procedure 0.090 mmol

Substance	purity (crude or final not stated) [%]	further results
Isobutyryl-DKWIQ[Dap]-NH2 (lactam 1-6; SMILES CC[C@H](C)[C@@H]1NC(=O)[C@H](Cc2c[nH]c3ccccc23)NC(=O)[C@H](CCCCN)NC(=O)[C@@H](NC(=O)C(C)C)CC(=O)NC[C@@H](C(N)=O)NC(=O)[C@H](CCC(N)=O)NC1=O)	–	final HPLC purity: 89%; crude mass: ˜65 mg; isolated mass: 4 mg
Isobutyryl-DKWIQ[Orn]-NH2 (lactam 1-6; SMILES CC[C@H](C)[C@@H]1NC(=O)[C@H](Cc2c[nH]c3ccccc23)NC(=O)[C@H](CCCCN)NC(=O)[C@@H](NC(=O)C(C)C)CC(=O)NCCC[C@@H](C(N)=O)NC(=O)[C@H](CCC(N)=O)NC1=O)	95.1	–
Isobutyryl-EKWIQK-NH2 (lactam 1-6; SMILES CC[C@H](C)[C@@H]1NC(=O)[C@H](Cc2c[nH]c3ccccc23)NC(=O)[C@H](CCCCN)NC(=O)[C@@H](NC(=O)C(C)C)CCC(=O)NCCCC[C@@H](C(N)=O)NC(=O)[C@H](CCC(N)=O)NC1=O)	83.9	–
Isobutyryl-EKWIQ[Dab]-NH2 (lactam 1-6; SMILES CC[C@H](C)[C@@H]1NC(=O)[C@H](Cc2c[nH]c3ccccc23)NC(=O)[C@H](CCCCN)NC(=O)[C@@H](NC(=O)C(C)C)CCC(=O)NCC[C@@H](C(N)=O)NC(=O)[C@H](CCC(N)=O)NC1=O)	65.8	–
Isobutyryl-EKWIQ[Dap]-NH2 (lactam 1-6; SMILES CC[C@H](C)[C@@H]1NC(=O)[C@H](Cc2c[nH]c3ccccc23)NC(=O)[C@H](CCCCN)NC(=O)[C@@H](NC(=O)C(C)C)CCC(=O)NC[C@@H](C(N)=O)NC(=O)[C@H](CCC(N)=O)NC1=O)	93.2	–
Isobutyryl-EKWIQ[Orn]-NH2 (lactam 1-6; SMILES CC[C@H](C)[C@@H]1NC(=O)[C@H](Cc2c[nH]c3ccccc23)NC(=O)[C@H](CCCCN)NC(=O)[C@@H](NC(=O)C(C)C)CCC(=O)NCCC[C@@H](C(N)=O)NC(=O)[C@H](CCC(N)=O)NC1=O)	88.3	–
Isobutyryl-KKWIQD-NH2 (lactam 1-6; SMILES CC[C@H](C)[C@@H]1NC(=O)[C@H](Cc2c[nH]c3ccccc23)NC(=O)[C@H](CCCCN)NC(=O)[C@@H](NC(=O)C(C)C)CCCCNC(=O)C[C@@H](C(N)=O)NC(=O)[C@H](CCC(N)=O)NC1=O)	77.5	–
Isobutyryl-KKWIQE-NH2 (lactam 1-6; SMILES CC[C@H](C)[C@@H]1NC(=O)[C@H](Cc2c[nH]c3ccccc23)NC(=O)[C@H](CCCCN)NC(=O)[C@@H](NC(=O)C(C)C)CCCCNC(=O)CC[C@@H](C(N)=O)NC(=O)[C@H](CCC(N)=O)NC1=O)	96.2	–
Isobutyryl-[Dab]KWIQD-NH2 (lactam 1-6; SMILES CC[C@H](C)[C@@H]1NC(=O)[C@H](Cc2c[nH]c3ccccc23)NC(=O)[C@H](CCCCN)NC(=O)[C@@H](NC(=O)C(C)C)CCNC(=O)C[C@@H](C(N)=O)NC(=O)[C@H](CCC(N)=O)NC1=O)	83.3	–
Isobutyryl-[Dab]KWIQE-NH2 (lactam 1-6; SMILES CC[C@H](C)[C@@H]1NC(=O)[C@H](Cc2c[nH]c3ccccc23)NC(=O)[C@H](CCCCN)NC(=O)[C@@H](NC(=O)C(C)C)CCNC(=O)CC[C@@H](C(N)=O)NC(=O)[C@H](CCC(N)=O)NC1=O)	82.4	–
Isobutyryl-[Dap]KWIQD-NH2 (lactam 1-6; SMILES CC[C@H](C)[C@@H]1NC(=O)[C@H](Cc2c[nH]c3ccccc23)NC(=O)[C@H](CCCCN)NC(=O)[C@@H](NC(=O)C(C)C)CNC(=O)C[C@@H](C(N)=O)NC(=O)[C@H](CCC(N)=O)NC1=O)	95.9	–
Isobutyryl-[Dap]KWIQE-NH2 (lactam 1-6; SMILES CC[C@H](C)[C@@H]1NC(=O)[C@H](Cc2c[nH]c3ccccc23)NC(=O)[C@H](CCCCN)NC(=O)[C@@H](NC(=O)C(C)C)CNC(=O)CC[C@@H](C(N)=O)NC(=O)[C@H](CCC(N)=O)NC1=O)	–	final HPLC purity: 84%; crude mass: ˜65 mg; isolated mass: 23 mg
Isobutyryl-[Orn]KWIQD-NH2 (SMILES CC[C@H](C)[C@H](NC(=O)[C@H](Cc1c[nH]c2ccccc12)NC(=O)[C@H](CCCCN)NC(=O)[C@H](CCCN)NC(=O)C(C)C)C(=O)N[C@@H](CCC(N)=O)C(=O)N[C@@H](CC(=O)O)C(N)=O)	99	–
Isobutyryl-[Orn]KWIQE-NH2 (lactam 1-6; SMILES CC[C@H](C)[C@@H]1NC(=O)[C@H](Cc2c[nH]c3ccccc23)NC(=O)[C@H](CCCCN)NC(=O)[C@@H](NC(=O)C(C)C)CCCNC(=O)CC[C@@H](C(N)=O)NC(=O)[C@H](CCC(N)=O)NC1=O)	87.4	–
Isobutyryl-[dC][dQ][dI][dW][dK][dC]-NH2 (disulfide 1-6; SMILES CC[C@@H](C)[C@H]1NC(=O)[C@@H](CCC(N)=O)NC(=O)[C@H](NC(=O)C(C)C)CSSC[C@H](C(N)=O)NC(=O)[C@@H](CCCCN)NC(=O)[C@@H](Cc2c[nH]c3ccccc23)NC1=O)	81.4	–
KWIQK-NH2 (linker N-5 via Glutaryl; SMILES CC[C@H](C)[C@@H]1NC(=O)[C@H](Cc2c[nH]c3ccccc23)NC(=O)[C@H](CCCCN)NC(=O)CCCC(=O)NCCCC[C@@H](C(N)=O)NC(=O)[C@H](CCC(N)=O)NC1=O)	99	–
KWIQK-NH2 (linker N-5 via Suc; SMILES CC[C@H](C)[C@@H]1NC(=O)[C@H](Cc2c[nH]c3ccccc23)NC(=O)[C@H](CCCCN)NC(=O)CCC(=O)NCCCC[C@@H](C(N)=O)NC(=O)[C@H](CCC(N)=O)NC1=O)	76	–
KWIQ[Dab]-NH2 (linker N-5 via Diglycolyl; SMILES CC[C@H](C)[C@@H]1NC(=O)[C@H](Cc2c[nH]c3ccccc23)NC(=O)[C@H](CCCCN)NC(=O)COCC(=O)NCC[C@@H](C(N)=O)NC(=O)[C@H](CCC(N)=O)NC1=O)	99.9	–
KWIQ[Dab]-NH2 (linker N-5 via Glutaryl; SMILES CC[C@H](C)[C@@H]1NC(=O)[C@H](Cc2c[nH]c3ccccc23)NC(=O)[C@H](CCCCN)NC(=O)CCCC(=O)NCC[C@@H](C(N)=O)NC(=O)[C@H](CCC(N)=O)NC1=O)	96.6	–
KWIQ[Dab]-NH2 (linker N-5 via Suc; SMILES CC[C@H](C)[C@@H]1NC(=O)[C@H](Cc2c[nH]c3ccccc23)NC(=O)[C@H](CCCCN)NC(=O)CCC(=O)NCC[C@@H](C(N)=O)NC(=O)[C@H](CCC(N)=O)NC1=O)	99.9	–
KWIQ[Dap]-NH2 (linker N-5 via Diglycolyl; SMILES CC[C@H](C)[C@@H]1NC(=O)[C@H](Cc2c[nH]c3ccccc23)NC(=O)[C@H](CCCCN)NC(=O)COCC(=O)NC[C@@H](C(N)=O)NC(=O)[C@H](CCC(N)=O)NC1=O)	88.9	–
KWIQ[Dap]-NH2 (linker N-5 via Glutaryl; SMILES CC[C@H](C)[C@@H]1NC(=O)[C@H](Cc2c[nH]c3ccccc23)NC(=O)[C@H](CCCCN)NC(=O)CCCC(=O)NC[C@@H](C(N)=O)NC(=O)[C@H](CCC(N)=O)NC1=O)	99.6	–
KWIQ[Dap]-NH2 (linker N-5 via Suc; SMILES CC[C@H](C)[C@@H]1NC(=O)[C@H](Cc2c[nH]c3ccccc23)NC(=O)[C@H](CCCCN)NC(=O)CCC(=O)NC[C@@H](C(N)=O)NC(=O)[C@H](CCC(N)=O)NC1=O)	97.2	–
KWIQ[Orn]-NH2 (linker N-5 via Diglycolyl; SMILES CC[C@H](C)[C@@H]1NC(=O)[C@H](Cc2c[nH]c3ccccc23)NC(=O)[C@H](CCCCN)NC(=O)COCC(=O)NCCC[C@@H](C(N)=O)NC(=O)[C@H](CCC(N)=O)NC1=O)	99.1	–
KWIQ[Orn]-NH2 (linker N-5 via Glutaryl; SMILES CC[C@H](C)[C@@H]1NC(=O)[C@H](Cc2c[nH]c3ccccc23)NC(=O)[C@H](CCCCN)NC(=O)CCCC(=O)NCCC[C@@H](C(N)=O)NC(=O)[C@H](CCC(N)=O)NC1=O)	–	final HPLC purity: 99%; crude mass: ˜65 mg; isolated mass: 12 mg
KWIQ[Orn]-NH2 (linker N-5 via Suc; SMILES CC[C@H](C)[C@@H]1NC(=O)[C@H](Cc2c[nH]c3ccccc23)NC(=O)[C@H](CCCCN)NC(=O)CCC(=O)NCCC[C@@H](C(N)=O)NC(=O)[C@H](CCC(N)=O)NC1=O)	97	–
Lauroyl-CKWIQC-NH2 (disulfide 1-6; SMILES CCCCCCCCCCCC(=O)N[C@H]1CSSC[C@@H](C(N)=O)NC(=O)[C@H](CCC(N)=O)NC(=O)[C@H]([C@@H](C)CC)NC(=O)[C@H](Cc2c[nH]c3ccccc23)NC(=O)[C@H](CCCCN)NC1=O)	99.9	–
Octanoyl-CKWIQC-NH2 (disulfide 1-6; SMILES CCCCCCCC(=O)N[C@H]1CSSC[C@@H](C(N)=O)NC(=O)[C@H](CCC(N)=O)NC(=O)[C@H]([C@@H](C)CC)NC(=O)[C@H](Cc2c[nH]c3ccccc23)NC(=O)[C@H](CCCCN)NC1=O)	92	–
Octanoyl-[Dap][dC][dQ][dI][dW][dK][dQ][dK][dP][dD][dL][dC]-NH2 (disulfide 2-12; SMILES CCCCCCCC(=O)N[C@@H](CN)C(=O)N[C@@H]1CSSC[C@H](C(N)=O)NC(=O)[C@@H](CC(C)C)NC(=O)[C@@H](CC(=O)O)NC(=O)[C@H]2CCCN2C(=O)[C@@H](CCCCN)NC(=O)[C@@H](CCC(N)=O)NC(=O)[C@@H](CCCCN)NC(=O)[C@@H](Cc2c[nH]c3ccccc23)NC(=O)[C@@H]([C@H](C)CC)NC(=O)[C@@H](CCC(N)=O)NC1=O)	99	–
Piv-CKWIQC-NH2 (disulfide 1-6; SMILES CC[C@H](C)[C@@H]1NC(=O)[C@H](Cc2c[nH]c3ccccc23)NC(=O)[C@H](CCCCN)NC(=O)[C@@H](NC(=O)C(C)(C)C)CSSC[C@@H](C(N)=O)NC(=O)[C@H](CCC(N)=O)NC1=O)	93	–

Numbered stars: 1 amine (or outer) side, 2 acyl side, 3 side chain; on linkers, the order of the positions; unused ones are H or OH. Bridge positions count the residues as written; N and C are the ends. Square brackets hold non-standard residues; d marks the D form. * marks the point of attachment. Diglycolyl = O=C(COCC(=O)[*:2])[*:1]; Glutaryl = O=C(CCCC(=O)[*:2])[*:1]; Suc = O=C(CCC(=O)[*:2])[*:1]; Lauroyl = CCCCCCCCCCCC(=O)*; Isobutyryl = CC(C)C(=O)*; Octanoyl = CCCCCCCC(=O)*; Orn = NCCC[C@H](N)C(=O)O; Dab = NCC[C@H](N)C(=O)O; Dap = NC[C@H](N)C(=O)O; Piv = CC(C)(C)C(=O)*
